{"source": "PubChem BioAssay AID1259327 | Drosophila RNAi Screening Center | 2017", "screen": "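Baseline ATP after transmembrane-protein gene knock-down with water vehicle only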", "system": "Drosophila S2R+ cells", "reagent": "long dsRNA against Drosophila genes", "duration": "5 days (water added on day 4, read one day later)", "conditions": "water added as vehicle, no metal, one day before read-out", "measurement": "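Luciferase ATP signal per well, normalised to plate mean, duplicate average converted to z-score across plates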", "direction": "ATP z-score: higher = more total ATP than typical wells; ATP luminescence: higher = more total ATP", "active means": "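a hit is any knock-down whose absolute ATP z-score is greater than 1.5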", "calls": "active = hit: ATP up or down; inactive = no clear ATP change", "note": "Shown is a random part of about 3,100 deposited reagents. 378 of all reagents (12%) were called active. 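Hits include both directions; z-score sign shows ATP rise or fall; raw luminescence values are not plate-normalised.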 The record does not give: the amount of reagent."}
{"Gene":"sll (GeneID 42115)","DRSC id":"DRSC16271","ATP z-score, duplicate mean":1.62,"ATP luminescence, replicate 1 (RLU)":9.25e5,"ATP luminescence, replicate 2 (RLU)":8.23e5,"Outcome":"active"}
{"Gene":"sll (GeneID 42115)","DRSC id":"DRSC29864","ATP z-score, duplicate mean":-0.213,"ATP luminescence, replicate 1 (RLU)":5.30e5,"ATP luminescence, replicate 2 (RLU)":5.93e5,"Outcome":"inactive"}
{"Gene":"ppk26 (GeneID 38835)","DRSC id":"DRSC10991","ATP z-score, duplicate mean":-1.06,"ATP luminescence, replicate 1 (RLU)":7.59e5,"ATP luminescence, replicate 2 (RLU)":7.54e5,"Outcome":"inactive"}
{"Gene":"ppk26 (GeneID 38835)","DRSC id":"DRSC25876","ATP z-score, duplicate mean":0.387,"ATP luminescence, replicate 1 (RLU)":8.95e5,"ATP luminescence, replicate 2 (RLU)":9.02e5,"Outcome":"inactive"}
{"Gene":"Vang (GeneID 35922)","DRSC id":"DRSC07570","ATP z-score, duplicate mean":-0.525,"ATP luminescence, replicate 1 (RLU)":5.58e5,"ATP luminescence, replicate 2 (RLU)":5.86e5,"Outcome":"inactive"}
{"Gene":"Adgf-A2 (GeneID 64879)","DRSC id":"DRSC09507","ATP z-score, duplicate mean":1.02,"ATP luminescence, replicate 1 (RLU)":6.29e5,"ATP luminescence, replicate 2 (RLU)":7.13e5,"Outcome":"inactive"}
{"Gene":"Adgf-A2 (GeneID 64879)","DRSC id":"DRSC39442","ATP z-score, duplicate mean":1.66,"ATP luminescence, replicate 1 (RLU)":5.88e5,"ATP luminescence, replicate 2 (RLU)":5.38e5,"Outcome":"active"}
{"Gene":"Ndc1 (GeneID 42825)","DRSC id":"DRSC15895","ATP z-score, duplicate mean":-0.0633,"ATP luminescence, replicate 1 (RLU)":7.22e5,"ATP luminescence, replicate 2 (RLU)":6.77e5,"Outcome":"inactive"}
{"Gene":"Ndc1 (GeneID 42825)","DRSC id":"DRSC39536","ATP z-score, duplicate mean":1.09,"ATP luminescence, replicate 1 (RLU)":6.23e5,"ATP luminescence, replicate 2 (RLU)":4.33e5,"Outcome":"inactive"}
{"Gene":"CG31729 (GeneID 34736)","DRSC id":"DRSC02524","ATP z-score, duplicate mean":-0.157,"ATP luminescence, replicate 1 (RLU)":4.43e5,"ATP luminescence, replicate 2 (RLU)":4.95e5,"Outcome":"inactive"}
{"Gene":"CG31729 (GeneID 34736)","DRSC id":"DRSC02946","ATP z-score, duplicate mean":0.129,"ATP luminescence, replicate 1 (RLU)":7.36e5,"ATP luminescence, replicate 2 (RLU)":7.44e5,"Outcome":"inactive"}
{"Gene":"CG31729 (GeneID 34736)","DRSC id":"DRSC25841","ATP z-score, duplicate mean":0.505,"ATP luminescence, replicate 1 (RLU)":9.39e5,"ATP luminescence, replicate 2 (RLU)":8.87e5,"Outcome":"inactive"}
